Measured values taken from PubChem BioAssay AID2551 (National Center for Advancing Translational Sciences (NCATS), 2010).
Hit rate of the full screen: of about 310,000 compounds, about 17,000 (5.5%) were called active. This list was built around the results that the source calls inconclusive (neither active nor inactive); the mix of calls is not that of the screen. Calls come from the whole dose curve; as a rule, active = well fitted inhibition curve with a large enough effect; inconclusive = small, poorly fitted or top-dose-only effect, or effect the other way; inactive = no such curve, though single readings can be large or run the other way. A potency beside an inconclusive call is a rough fit, not a confirmed value.

By UniProt entry, the sequences of proteins in these tests, tags left out. Where a name states a change or a piece, a line headed by the entry shows the natural chain unless it says otherwise.
UniProt P51450: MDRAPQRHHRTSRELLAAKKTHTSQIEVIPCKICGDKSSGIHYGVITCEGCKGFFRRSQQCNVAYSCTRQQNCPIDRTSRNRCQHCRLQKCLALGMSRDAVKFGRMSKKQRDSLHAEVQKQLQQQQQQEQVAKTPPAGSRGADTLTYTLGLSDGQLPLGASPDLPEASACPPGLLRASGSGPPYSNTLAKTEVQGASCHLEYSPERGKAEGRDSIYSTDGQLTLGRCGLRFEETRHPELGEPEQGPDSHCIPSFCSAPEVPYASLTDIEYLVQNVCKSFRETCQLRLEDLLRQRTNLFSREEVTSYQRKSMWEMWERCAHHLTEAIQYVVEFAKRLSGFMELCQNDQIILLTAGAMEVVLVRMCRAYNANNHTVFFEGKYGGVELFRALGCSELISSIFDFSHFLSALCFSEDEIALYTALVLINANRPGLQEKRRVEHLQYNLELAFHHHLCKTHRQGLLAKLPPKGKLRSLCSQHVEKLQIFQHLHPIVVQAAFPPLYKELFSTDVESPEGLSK

biological target: Nuclear receptor ROR-gamma (Mus musculus) (UniProt P51450); experiment: qHTS for inhibitors of ROR gamma transcriptional activity; settings: Drosophila S2 Gal4-RORgamma UAS-luciferase reporter, 20 h; activity change, negative = inhibition: at 53.6 µM (top of the series); note: nearly all actives have a fitted effect of over 60% in size
How it was run: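 Schneider cells (Drosophila), stable Gal4 DBD–ROR gamma + UAS-luc; 1 hr cmpd preincubation; Cu2+ induction 700 uM final; 20 hr ambient; luminescence.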
% is set by controls: 0 for no effect and ±100 for the full control effect; potency is the fitted concentration of half-maximal effect.

SMILES	Potency	activity change, negative = inhibition
CCOC(=O)c1c(N)sc(C(=O)N(C)C)c1CN1CCOCC1	inconclusive: 35.5 µM [inhibitor, single point]	–
O=C(Nc1cccc(F)c1)N1CCC2(CC1)CCN(C(=O)c1ccco1)CC2	inconclusive: 35.5 µM [activator, partial curve]	–
COc1ccc([C@@H]2Sc3ccccc3N(CCN(C)C)C(=O)[C@@H]2OC(C)=O)cc1	inactive	–
COc1ccc(OC)c(CC(NC(C)=O)C(=O)NC2CCN(S(=O)(=O)c3ccc(NC(C)=O)cc3)CC2)c1 (stereo not drawn)	–	inactive: -0.871%
O=C1CCCCCCC1Sc1ccccc1[N+](=O)[O-] (stereo not drawn)	inconclusive: 10 µM [inhibitor, partial curve, poor fit]	–
Cc1ccc(Nc2nc(-c3sc(NC(=O)c4cccc(Cl)c4)nc3C)cs2)cc1	inconclusive: 11.2 µM [inhibitor, partial curve]	–
COC(=O)[C@@H](N)CS	inactive	–
Nc1nc(SCC(=O)Nc2cccnc2Cl)n[nH]1	–	inactive: 0.165%
O=C(CS(=O)(=O)c1ccccc1)c1ccc2c(c1)OCCO2	inconclusive: 35.5 µM [inhibitor, single point]	–
COc1ccc(-n2c(=S)[nH]c3cc(C(=O)NCc4ccccc4OC)ccc3c2=O)c(OC)c1	active: 14.1 µM	–
Cc1cccc(C)c1OCC(O)CNC(C)C (stereo not drawn)	–	inactive: 5.44%
CC(C)Oc1ccc(C(=O)Nc2ccc(N3CCN(C(=O)c4ccco4)CC3)cc2)cc1	inconclusive: 2 µM [activator, full curve, poor fit]	–
COc1ccc(Nc2nc(-c3c(C)nc4ncccn34)cs2)cc1	inconclusive: 35.5 µM [inhibitor, single point]	–
CCC(=O)O/N=C(\N)c1ccc(Oc2cc(C)c(Cl)c(C)c2)c([N+](=O)[O-])c1	–	inactive: 35%
CCn1ccnc1CN(C)C(=O)C1CCC(=O)N(Cc2cccc(F)c2)C1 (stereo not drawn)	–	inactive: 2.2%
COc1ccc(C(=O)COc2ccc(C)cc2NC(C)=O)cc1	inconclusive: 5.62 µM [activator, partial curve]	–
S=C(NCc1ccco1)Nc1ccc(Cl)cn1	active: 2.51 µM	–
C=CCn1c(SCC(=O)NCC)nc2sc3c(c2c1=O)CCC3	–	inactive: -36%
CCOC(=O)c1ccc(-n2c(N)c(C(=O)NCc3ccco3)sc2=S)cc1	–	inactive: 31.5%
Cc1nc(SCC(=O)c2ccc(F)cc2)n[nH]1	inconclusive: 35.5 µM [inhibitor, single point]	–
O=C(CCCCCCCCN1C(=O)c2ccccc2C1=O)N1CCOCC1	inconclusive: 14.1 µM [activator, partial curve]	–
COc1ccccc1C(=O)NC(=S)Nc1ccc(Cc2ccncc2)cc1	inconclusive: 25.1 µM [inhibitor, single point]	–
CN1CCN(C(=O)c2cc3c(ccc4ccccc43)oc2=O)CC1	inconclusive: 25.1 µM [inhibitor, single point]	–
Cc1cc(C)c(/C=N/NC(=O)c2nnn(-c3nonc3N)c2COc2ccc(F)cc2)c(C)c1	inconclusive: 22.4 µM [inhibitor, single point]	–
O=C(/C=C/c1ccc(-c2ccccc2[N+](=O)[O-])o1)c1ccc(F)cc1	inconclusive: 7.94 µM [activator, partial curve]	–

SMILES	Potency	activity change, negative = inhibition
Cc1ccc(NC(=O)c2cc3cccc([N+](=O)[O-])c3[nH]2)cc1	inconclusive: 0.1 µM [activator, full curve, poor fit]	–
CC(=O)c1cccc(NC(=O)c2ccc(-c3ccccc3[N+](=O)[O-])o2)c1	inconclusive: 17.8 µM [inhibitor, single point]	–
Cn1cc(SCC(=O)Nc2nc3ccccc3s2)c2ccccc21	inconclusive: 22.4 µM [inhibitor, single point]	–
CCN(C(=O)COC(=O)c1cccc(NS(=O)(=O)c2ccc(F)c(F)c2)c1)C1CCS(=O)(=O)C1 (stereo not drawn)	–	inactive: 13.6%
CCOc1ccc(S(=O)(=O)Nc2cnc3ccccc3c2)cc1	inconclusive: 3.98 µM [activator, partial curve]	–
CCOC(=O)N1CCN(C(=S)NC(=O)c2cc(Br)ccc2Cl)CC1	active: 0.891 µM	–
COc1cccc2sc(Nc3nnc(-c4ccccc4Cl)o3)nc12	active: 2 µM	–
C(=N\c1ncnc2sccc12)/NOCc1ccccc1	inconclusive: 15.8 µM [activator, single point]	–
Cc1cccc(/C(N)=N/OC(=O)CCC2CCCCC2)c1	inconclusive: 35.5 µM [inhibitor, single point]	–
Cc1[nH]c2ccccc2c1/C=N/NC(=O)c1cccs1	inconclusive: 35.5 µM [inhibitor, single point]	–
CCOc1cc(NC(=O)c2ccco2)c(OCC)cc1NC(=O)CCc1ccc(OC)cc1	–	inactive: 0.52%
Oc1ccccc1N1CCN(C(=S)NCCc2ccccc2)CC1	inconclusive: 7.08 µM [activator, partial curve]	–
Cc1ccc(C(=O)N2CCC(C(=O)Nc3cccc([N+](=O)[O-])c3)CC2)cc1	inconclusive: 8.91 µM [activator, single point]	–
CCC12C=C(/C=C/c3ccccc3)C(CC)(C1)C(c1ccccc1)CC2=O (stereo not drawn)	–	inactive: -18.4% [at 10 µM]
CC(Sc1ccc(Cl)cc1)C(=O)Nc1ccc(S(=O)(=O)N2CCOCC2)cc1 (stereo not drawn)	inconclusive: 7.94 µM [activator, partial curve, poor fit]	–
Cc1ccc(C2NNC(=O)C2NC(=O)c2ccccc2)cc1 (stereo not drawn)	inconclusive: 10 µM [activator, partial curve]	–
O=C(O)c1ccc(-n2ccnc2)c([N+](=O)[O-])c1	–	inactive: -20.7%
COc1ccc(NC(=S)N(CCc2nc3cc(C)c(C)cc3[nH]2)Cc2cccnc2)cc1	–	inactive: -28.4%
CC(=O)Oc1cc(OC(C)=O)c2c(=O)cc(-c3ccc(OC(C)=O)c(OC(C)=O)c3)oc2c1	inconclusive: 35.5 µM [inhibitor, single point]	–
CC1CCCCN1S(=O)(=O)Cc1ccccc1Cl (stereo not drawn)	inconclusive: 35.5 µM [inhibitor, single point]	–
COc1ccc(N2CCN(c3oc(COc4ccc(Cl)cc4)nc3C#N)CC2)cc1	inconclusive: 1 µM [activator, full curve]	–
Cc1nnc(SCc2nc3sc4c(c3c(=O)[nH]2)CCCC4)n(N)c1=O	inconclusive: 11.2 µM [activator, partial curve, poor fit]	–
Cc1ccc(CN2CCC(n3nccc3NC(=O)c3ccccc3C)CC2)o1	inconclusive: 35.5 µM [inhibitor, single point]	–
CCOC(=O)CC(NS(=O)(=O)c1ccc(NC(C)=O)cc1)c1ccc(OCC)cc1 (stereo not drawn)	inconclusive: 22.4 µM [activator, single point]	–
O=C(NC(=S)Nc1nc2ccccc2s1)c1ccco1	active: 0.891 µM	–

Some of the entries above in another layout:
SMILES | Potency | activity change, negative = inhibition
CCOC(=O)c1c(N)sc(C(=O)N(C)C)c1CN1CCOCC1 | inconclusive: 35.5 µM [inhibitor, single point] | –
Cc1cc(C)c(/C=N/NC(=O)c2nnn(-c3nonc3N)c2COc2ccc(F)cc2)c(C)c1 | inconclusive: 22.4 µM [inhibitor, single point] | –
Cc1[nH]c2ccccc2c1/C=N/NC(=O)c1cccs1 | inconclusive: 35.5 µM [inhibitor, single point] | –

Next records

SMILES	Potency	activity change, negative = inhibition
CCCCNC(=S)NNC(=O)CCn1nc(C)c(Br)c1C	active: 0.631 µM	–
NNC(=O)c1cc2ccccc2cc1O	inconclusive: 11.2 µM [inhibitor, partial curve, poor fit]	–
Cc1ccc2nc(NCCN)c3ncc(C)n3c2c1	–	inactive: -26.3%
CSc1ccc(CN(C)CCc2ccccn2)cc1	–	inactive: -9.4%
Nc1c(Cl)cc2c(c1Oc1ccccc1)C(=O)c1ccccc1C2=O	–	inactive: -32.8%
COc1cc2c(cc1OC)CN(Cc1nc3ccsc3c(=O)[nH]1)CC2	inconclusive: 35.5 µM [inhibitor, single point]	–
CC1(C)N([O-])c2cc([N+](=O)[O-])ccc2[N+]1=O	active: 20 µM	–
CCOc1ccc(N(CC(=O)Nc2ccc(C)c(C)c2)S(=O)(=O)c2c(C)noc2C)cc1	inconclusive: 35.5 µM [activator, single point]	–
Cc1cccc(NC(=O)c2ccc(OC3CSC3)cc2)c1	inconclusive: 35.5 µM [inhibitor, single point]	–
Cc1nc(CN2CCN(C(=O)c3ccc(C(C)(C)C)cc3)CC2)cs1	inconclusive: 28.2 µM [inhibitor, single point]	–
O=C(Nc1cccn(Cc2c(Cl)cccc2Cl)c1=O)c1ccccc1Cl	inconclusive: 20 µM [activator, single point]	–
CC(=O)c1ccc(NC(=S)N(CCCN(C)C)Cc2ccccc2)cc1	–	inactive: 18.2%
S=C(NCCCn1ccnc1)NC1CCCCC1	–	inactive: 28.9%
CC(=O)Nc1ccc(/C=C/C(=O)c2ccc3c(c2)OCCO3)cc1	inconclusive: 35.5 µM [inhibitor, single point]	–
CCN1CCN(Cc2ccc(NC(=O)c3cc(NC(=O)C(=O)c4c[nH]c5ccccc45)cc(OC)c3)cc2C(F)(F)F)CC1	inconclusive: 14.1 µM [inhibitor, single point]	–
N#Cc1c(-c2cccc(Br)c2)cc(-c2ccco2)[nH]c1=O	inconclusive: 6.31 µM [inhibitor, single point]	–
CC(C)Cc1ccc(S(=O)(=O)Nc2ccccn2)cc1	–	inactive: -6.88%
Cc1nc(Nc2ccc(F)cc2)[nH]c(=O)c1CCC(C)C	inconclusive: 7.08 µM [activator, full curve]	–
Cc1nn(CCc2n[nH]c(=S)n2-c2ccc(F)c(Cl)c2)c(C)c1[N+](=O)[O-]	active: 7.08 µM	–
O=c1[nH]n(-c2ccccc2Cl)c(=O)c2ccccc12	–	inactive: -1.07%
CCc1n[nH]c(=S)n1/N=C/c1ccc(N(C)c2ccccc2)cc1	active: 4.47 µM	–
COc1ccc(C)cc1S(=O)(=O)N1CCN(c2cccc(C(F)(F)F)c2)CC1	–	inactive: 27.6%
Cc1c(Cl)cccc1Nc1nc(N)nc(CSc2ncccn2)n1	inconclusive: 12.6 µM [activator, partial curve, poor fit]	–
